Measured values reported in PMC9217950.
These are yes or no findings as the source states them, for the method shown. In cells and extracts the contact can be indirect. A yes stands for co-enrichment or nearness to the bait. Other partners may have been found. Where a sequence is shown, tags or fusion partners need not be part of it.

T1: FLAG-GST-REL (human), Q04864
T1 chain: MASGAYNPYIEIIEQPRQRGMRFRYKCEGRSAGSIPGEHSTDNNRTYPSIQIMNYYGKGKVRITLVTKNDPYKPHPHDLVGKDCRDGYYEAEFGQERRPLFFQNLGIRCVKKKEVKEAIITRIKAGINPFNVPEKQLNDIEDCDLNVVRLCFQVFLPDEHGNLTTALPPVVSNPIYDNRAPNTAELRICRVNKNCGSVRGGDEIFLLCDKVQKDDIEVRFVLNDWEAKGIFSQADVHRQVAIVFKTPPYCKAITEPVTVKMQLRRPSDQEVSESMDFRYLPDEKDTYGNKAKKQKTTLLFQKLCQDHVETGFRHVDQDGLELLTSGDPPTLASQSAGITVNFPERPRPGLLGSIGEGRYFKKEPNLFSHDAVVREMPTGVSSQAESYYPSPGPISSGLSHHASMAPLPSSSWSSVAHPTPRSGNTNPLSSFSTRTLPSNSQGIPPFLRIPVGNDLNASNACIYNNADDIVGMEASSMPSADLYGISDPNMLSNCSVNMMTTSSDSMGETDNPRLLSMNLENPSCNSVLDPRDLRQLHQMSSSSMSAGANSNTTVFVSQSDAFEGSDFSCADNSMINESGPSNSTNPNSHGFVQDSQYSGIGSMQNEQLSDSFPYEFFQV

B1: AirID N-terminally fused to IκBα, P25963 1-317 (protein)
chain: MFQAAERPQEWAMEGPRDGLKKERLLDDRHDSGLDSMKDEEYEQMVKELQEIRLEPQEVPRGSEPWKQQLTEDGDSFLHLAIIHEEKALTMEVIRQVKGDLAFLNFQNNLQQTPLHLAVITNQPEIAEALLGAGCDPELRDFRGNTPLHLACEQGCLASVGVLTQSCTTPHLHSILKATNYNGHTCLHLASIHGYLGIVELLVSLGADVNAQEPCNGRTALHLAVDLQNPDLVSLLLKCGADVNRVTYQGYSPYQLTWGRPSTRIQQQLGQLTLENLQMLPESEDEESYDTESEFTEFTEDELPYDDCVFGGQRLTL
B2: PRDX3 in pCAGGS-MCS-FLAG (protein, UniProt P30048 62-256)
chain: APAVTQHAPYFKGTAVVNGEFKDLSLDDFKGKYLVLFFYPLDFTFVCPTEIVAFSDKANEFHDVNCEVVAVSVDSHFSHLAWINTPRKNGGLGHMNIALLSDLTKQISRDYGVLLEGSGLALRGLFIIDPNGVIKHLSVNDLPVGRSVEETLRLVKAFQYVETHGEVCPANWTPDSPTIKPSPAASKEYFQKVNQ

Columns and labels:
[1] = molecular target: T1, FLAG-GST-REL (human), Q04864; test: proximity labelling; CF-PPiD on the diversity protein array: 118 FG-tagged human proteins on glutathione magnetic beads, 1536-well plate, 1x and 3x dual spots; translational mixture of AirID, AirID-TP53 or AirID-IκBα with biotin and ATP; HRP-conjugated anti-biotin antibody; only the target purified; conditions: remark: other sources report otherwise
[2] = molecular target: AGIA-AirID-IκBα (human) (UniProt P25963); test: proximity labelling; in HEK293T cells stably expressing AGIA-AirID-IκBα, transfected 24 h, 50 µM D-biotin 2 h; lysis in 1% SDS, boiled; streptavidin bead pull-down (STA-PDA), anti-FLAG immunoblot

Binder | binding [1] | binding [2]
B1 | binds | 
B2 |  | binds
